Assay results as given in patent publication US6949654B2, “N-alkyl-N-phenylhydroxylamine compounds containing metal chelating groups, their preparation and their therapeutic uses” (Sam-Sung Electronics Co., Ltd., priority 2001, dated 2005).
pIC50: −log10 of the molar value. At least one structure is not confirmed: it was looked up by name or label, or the drawing left a doubt.

System: soybean phosphatidylcholine liposome
Experiment: Inhibition of lipid peroxidation of a multilayer liposome (TBA method)
Type: biochemical
Details: lipid peroxidation of liposome started with FeCl2, 37° C. 15 minutes, absorbance at 532 nm; read-out: Inhibitor Concentration (IC50)
Protocol: The compounds of the present invention were tested for antioxidant effect in terms of the repression of the radical chain reaction of a multilayer liposome.
The liposome was prepared as followings: 30 mg of commercially available soybean phosphatidylcholine (PC, Sigma Chemical Co., U.S.A.) was dissolved in 1 mL of ethanol, and 200 μL of the ethanol/PC solution was added to 10 mL of 10 mM Tris buffer including 50 mM NaCl (pH 7.0) with stirring.
The ability of a compound to inhibit oxidation of the liposome was evaluated as followings: To 400 μL of the liposomes were added the test compound (in buffer or ethanol) and histidine-FeCl3 (167:33 μM final). Oxidation was initiated by the addition of FeCl2 (33 μM final prepared in nitrogen purged water). The mixtures was shaken at 37° C. for 15 minutes. Thereafter, tubes were treated with 1 mL of 0.67% thiobabituric acid (TBA):10% trichloroacetic acid (2:1, v/v) in 0.25 N HCl solution, containing 1.5% (v/v) t-butylhydroxytoluene (BHT) to terminate oxidation. The aliquots were heated to 100° C. for 20 minutes. After ice cooling, 1 mL of chloroform was added to 1 mL supernatant from tubes and tubes were centrifuged. The absorbances of the resulting supernatant were measured at 532 nm (see: Table 1 below).

Question: `O=c1c2ccccc2[se]n1-c1ccccc1` [Ebselen] was tested. Which pIC50 did it give?
Answer: 4.16
